PubChem BioAssay AID652272 – Drosophila RNAi Screening Center | 2013
The screen tested about 21,000 reagents; below is an unselected part of those with a known target gene and a result. In the full data, 503 (2.4%) are marked active. 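Raw plate light values, not normalised; calls rest on replicate z-scores that were not deposited; hits include reporter decreases as well as increases.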 A plus sign joins genes that one reagent is predicted to hit. No sequences are given here. Not given: the amount of reagent, the time to read-out.

Purpose: 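Genes whose knock-down decreases or increases Hedgehog reporter output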 (primary screen)
System: Drosophila clone 8 (Cl8) cells
Knock-down reagent: long dsRNA against Drosophila genes
Detection: 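Plate reader light from a firefly reporter under a ptc promoter fragment that responds to Hedgehog, with Renilla light as transfection reference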
Reading the numbers: firefly Hh reporter signal: higher = more ptc reporter light; Renilla reference signal: higher = more Renilla control light
Hit rule: 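Hit when the z-score averaged over two replicates is under -2 or over +3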
Calls: active = hit: reporter lowered or raised; inactive = not a hit

| gene knocked down | DRSC id | firefly Hh reporter signal, replicate 1 | firefly Hh reporter signal, replicate 2 | firefly Hh reporter signal, replicate 3 | Renilla reference signal, replicate 1 | Renilla reference signal, replicate 2 | activity call |
| --- | --- | --- | --- | --- | --- | --- | --- |
| CG18088 | DRSC02654 | 85722 | 64106 | – | 2219 | 5994 | inactive |
| CG42542 | DRSC15549 | 1.26e5 | 1.13e5 | – | 5537 | 4160 | inactive |
| D12 | DRSC03311 | 1.08e5 | 65833 | – | 5084 | 2568 | inactive |
| CG32447 | DRSC11732 | 1.24e5 | 1.38e5 | – | 5149 | 5216 | inactive |
| CG32447 | DRSC11805 | 1.21e5 | 1.38e5 | – | 4657 | 4084 | inactive |
| CG11883 | DRSC06094 | 62083 | 44256 | – | 2650 | 1840 | inactive |
| Ccp84Ae | DRSC12590 | 1.15e5 | 7.83e5 | 1.33e5 | 4332 | 6496 | inactive |
| CG34460 | DRSC06974 | 58565 | 37731 | – | 483 | 2259 | inactive |
| Polr2M (RNA polymerase II subunit M) | DRSC15513 | 5.79e5 | 72546 | – | 29064 | 1997 | inactive |
| CG4880 | DRSC19923 | 1.04e5 | 99168 | – | 2603 | 2280 | inactive |
| CG4829 | DRSC19920 | 77607 | 84007 | – | 1970 | 2084 | inactive |
| Fen1 (Flap endonuclease 1) | DRSC07415 | 79510 | 42780 | – | 1228 | 3581 | inactive |
| CR40450 + CG32767 | DRSC18387 | 77366 | 61330 | – | 2132 | 2068 | inactive |
| GstD5 (Glutathione S transferase D5) | DRSC16686 | 83605 | 1.17e5 | – | 3255 | 3222 | inactive |
| CG34149 | DRSC14537 | 82800 | 88129 | – | 3737 | 3526 | inactive |

Next part, starting with the last 2 of the part before.
| gene knocked down | DRSC id | firefly Hh reporter signal, replicate 1 | firefly Hh reporter signal, replicate 2 | firefly Hh reporter signal, replicate 3 | Renilla reference signal, replicate 1 | Renilla reference signal, replicate 2 | activity call |
| --- | --- | --- | --- | --- | --- | --- | --- |
| GstD5 (Glutathione S transferase D5) | DRSC16686 | 83605 | 1.17e5 | – | 3255 | 3222 | inactive |
| CG34149 | DRSC14537 | 82800 | 88129 | – | 3737 | 3526 | inactive |
| CG10062 | DRSC05960 | 1.32e5 | 1.02e5 | – | 6977 | 4685 | inactive |
| beat-IIIb (beaten path IIIb) | DRSC02435 | 1.40e5 | 63538 | – | 3595 | 5597 | inactive |
| AttA (Attacin-A) | DRSC05926 | 1.16e5 | 67062 | – | 3287 | 2759 | inactive |
| Ir8a (Ionotropic receptor 8a) | DRSC17817 | 76264 | 1.21e5 | – | 2260 | 4374 | inactive |
| Ir8a (Ionotropic receptor 8a) | DRSC17869 | 76304 | 1.67e5 | – | 2150 | 6189 | inactive |
| CG17571 | DRSC01768 | 80960 | 1.76e5 | – | 2625 | 8112 | inactive |
| CG17571 | DRSC03755 | 73718 | 45322 | – | 1941 | 5235 | inactive |
| Cka (Connector of kinase to AP-1) | DRSC03476 | 1.20e5 | 69273 | – | 3921 | 7020 | inactive |
